Values from PubChem BioAssay AID652243 (Drosophila RNAi Screening Center, 2013)
The screen tested about 24,000 reagents; this is a random part of those that have a named target and a result. Over the whole deposit, 246 (1%) are marked active. 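Plates not normalised; calls are printed but the firefly/Renilla ratio behind them is not deposited; fold cut for lowering reported inconsistently.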 The raw values are shown without normalisation. A number with no mark means an inactive call. The numbers tell different reagents against one gene apart. Not given: the amount of reagent.

Aim: 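Fly regulators of androgen-dependent reporter output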 (primary screen)
System: Drosophila S2R+ cells
Knock-down reagent: long dsRNA against Drosophila genes
Time to read-out: 72 h (48 h, then 24 h hormone)
Treatment: synthetic androgen R1881 at 10 nM for 24 h
Detection: 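Per-well raw luminescence of the androgen-driven firefly reporter and of the Renilla control, two replicates each, without normalisation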
Scale: firefly reporter light: higher = more light from androgen-responsive reporter; Renilla control light: higher = more constitutive control signal (cell number, transfection)
Active means: 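Across duplicate plates, a knock-down whose log firefly/Renilla ratio shifted a set fold down or up from the GFP/LacZ control mean was a hit; the downward cut appears as both 1.5 and 3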
Meaning of the calls: active = hit: reporter lowered or raised; inactive = no hit

With knock-down of SH3PX1 the results were firefly reporter light, replicate 1 = 1.41e5; firefly reporter light, replicate 2 = 1.17e5; Renilla control light, replicate 1 = 1.77e6; Renilla control light, replicate 2 = 1.51e6.
Against sw, the values are firefly reporter light, replicate 1 = 6.70e5; firefly reporter light, replicate 2 = 6.33e5; Renilla control light, replicate 1 = 9.54e5; Renilla control light, replicate 2 = 9.22e5.
scw #1 gave firefly reporter light, replicate 1 = 1.37e5; firefly reporter light, replicate 2 = 1.59e5; Renilla control light, replicate 1 = 5.44e5; Renilla control light, replicate 2 = 6.91e5.
scw #2 showed firefly reporter light, replicate 1 = 2.38e5; firefly reporter light, replicate 2 = 1.50e5; Renilla control light, replicate 1 = 7.29e5; Renilla control light, replicate 2 = 3.99e5.
Silencing of CG8389 #1 came out at: firefly reporter light, replicate 1 = 1.20e6; firefly reporter light, replicate 2 = 1.08e6; Renilla control light, replicate 1 = 3.00e6; Renilla control light, replicate 2 = 1.65e6.
CG8389 #2 scored firefly reporter light, replicate 1 = 4.43e5; firefly reporter light, replicate 2 = 7.10e5; Renilla control light, replicate 1 = 7.77e5; Renilla control light, replicate 2 = 1.90e6.
CG8389 #3 scored firefly reporter light, replicate 1 = 3.78e5; firefly reporter light, replicate 2 = 8.57e5; Renilla control light, replicate 1 = 9.43e5; Renilla control light, replicate 2 = 1.66e6.

Reformatted: 2 of the entries above.
| Target gene | reagent no. | firefly reporter light, replicate 1 | firefly reporter light, replicate 2 | Renilla control light, replicate 1 | Renilla control light, replicate 2 |
| --- | --- | --- | --- | --- | --- |
| sw | 1 | 6.70e5 | 6.33e5 | 9.54e5 | 9.22e5 |
| scw | 1 | 1.37e5 | 1.59e5 | 5.44e5 | 6.91e5 |

Continued:
Against Setx, the values are firefly reporter light, replicate 1 = 3.13e5; firefly reporter light, replicate 2 = 2.63e5; Renilla control light, replicate 1 = 3.72e6; Renilla control light, replicate 2 = 2.61e6.
Silencing of Gr2a came out at: firefly reporter light, replicate 1 = 2.65e5; firefly reporter light, replicate 2 = 4.07e5; Renilla control light, replicate 1 = 4.58e6; Renilla control light, replicate 2 = 3.46e6.
After knock-down of CG33090 #1, the record shows firefly reporter light, replicate 1 = 9.78e5; firefly reporter light, replicate 2 = 8.56e5; Renilla control light, replicate 1 = 1.19e6; Renilla control light, replicate 2 = 1.40e6.
CG33090 #2 scored firefly reporter light, replicate 1 = 6.84e5; firefly reporter light, replicate 2 = 6.83e5; Renilla control light, replicate 1 = 1.69e6; Renilla control light, replicate 2 = 1.38e6.
CG3690 #1 showed firefly reporter light, replicate 1 = 2.67e5; firefly reporter light, replicate 2 = 2.81e5; Renilla control light, replicate 1 = 5.47e6; Renilla control light, replicate 2 = 4.40e6.
CG3690 #2 showed firefly reporter light, replicate 1 = 2.99e5; firefly reporter light, replicate 2 = 4.10e5; Renilla control light, replicate 1 = 5.88e6; Renilla control light, replicate 2 = 3.92e6.
